Laboratory results from publication PMC4755545.

Protein sequences, listed by entry. Tags and fused reporters are not part of them. Lines headed by an entry give the natural chain unless they say otherwise; changes in a name come on top.
UniProt P78972: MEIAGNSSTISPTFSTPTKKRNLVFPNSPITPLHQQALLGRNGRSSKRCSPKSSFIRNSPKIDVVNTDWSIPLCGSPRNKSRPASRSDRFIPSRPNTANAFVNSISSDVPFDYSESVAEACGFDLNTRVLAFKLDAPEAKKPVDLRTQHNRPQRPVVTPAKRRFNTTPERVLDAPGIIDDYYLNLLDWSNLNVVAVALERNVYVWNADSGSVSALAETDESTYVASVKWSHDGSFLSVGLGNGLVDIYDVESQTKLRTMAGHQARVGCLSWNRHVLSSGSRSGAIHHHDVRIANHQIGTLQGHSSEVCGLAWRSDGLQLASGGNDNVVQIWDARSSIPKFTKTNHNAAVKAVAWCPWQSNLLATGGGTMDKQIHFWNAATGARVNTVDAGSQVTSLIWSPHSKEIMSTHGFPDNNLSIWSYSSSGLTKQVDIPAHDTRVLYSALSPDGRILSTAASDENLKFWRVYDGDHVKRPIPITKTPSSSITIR
UniProt O42839: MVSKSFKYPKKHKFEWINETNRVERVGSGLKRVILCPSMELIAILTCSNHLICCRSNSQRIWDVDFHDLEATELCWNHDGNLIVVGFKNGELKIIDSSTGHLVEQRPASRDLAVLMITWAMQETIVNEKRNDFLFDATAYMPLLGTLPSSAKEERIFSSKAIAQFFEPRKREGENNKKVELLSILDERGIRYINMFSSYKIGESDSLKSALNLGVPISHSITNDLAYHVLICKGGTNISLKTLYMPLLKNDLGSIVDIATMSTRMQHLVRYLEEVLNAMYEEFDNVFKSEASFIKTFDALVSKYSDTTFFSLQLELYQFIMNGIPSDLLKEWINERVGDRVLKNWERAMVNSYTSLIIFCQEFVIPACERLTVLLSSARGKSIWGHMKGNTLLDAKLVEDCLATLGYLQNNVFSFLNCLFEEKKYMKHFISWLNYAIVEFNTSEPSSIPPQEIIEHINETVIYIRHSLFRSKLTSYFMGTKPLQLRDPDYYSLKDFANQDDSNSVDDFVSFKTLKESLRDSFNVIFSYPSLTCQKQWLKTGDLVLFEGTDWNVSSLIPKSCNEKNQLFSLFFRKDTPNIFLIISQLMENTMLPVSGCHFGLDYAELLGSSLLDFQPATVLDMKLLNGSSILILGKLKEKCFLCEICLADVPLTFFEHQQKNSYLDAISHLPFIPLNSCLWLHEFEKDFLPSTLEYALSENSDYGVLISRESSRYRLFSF
UniProt O59767: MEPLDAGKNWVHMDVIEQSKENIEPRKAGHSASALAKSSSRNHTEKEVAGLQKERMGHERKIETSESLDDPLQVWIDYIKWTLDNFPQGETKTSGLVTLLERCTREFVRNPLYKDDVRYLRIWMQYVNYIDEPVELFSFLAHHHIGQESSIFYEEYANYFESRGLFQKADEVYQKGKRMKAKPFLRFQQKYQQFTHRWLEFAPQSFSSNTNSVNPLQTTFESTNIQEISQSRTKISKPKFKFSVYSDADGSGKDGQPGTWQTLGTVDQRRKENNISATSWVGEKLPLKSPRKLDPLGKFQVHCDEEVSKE

Tests used:
[1] = biological target: Cdc20^Slp1 with an internally-engineered 3xFLAG tag (S. pombe) (UniProt P78972); test: co-IP; Cdc20^Slp1-3xFLAG immunoprecipitated with anti-FLAG (M2) antibodies on Dynabeads from native extracts of cdc25-22 cells released from G2 into mitosis at 25°C, time points every 15 min; blots for Mad3p (anti-GFP) and Mad2p; strains wild type, mad3-C9A, mad2-S92A, mad3-C9A mad2-S92A, mps1-kd
[2] = biological target: TAP-tagged Lid1 (Apc4), subunit of the APC/C (S. pombe) (UniProt O42839); test: co-IP; Apc4-TAP pulled down with IgG Dynabeads from extracts of cdc25-22 cells released from G2 into mitosis at 25°C, carbendazim added after 20 min, time points every 15 min; blots for Mad3p (anti-GFP) and Mad2p; lysis buffer 50 mM HEPES pH 7.5, 75 mM KCl, 0.1% TritonX-100; strains wild type, mad3-KEN1, mad3-KEN2, mad3-C9A, mad2-S92A, mad3-C9A mad2-S92A

| binding [1] | binding [2] | Substance |
| --- | --- | --- |
| binds | binds | Mad3-C9A tagged with GFP (from UniProt O59767) |
| – | no binding | Mad3-KEN1 mutant tagged with GFP (from UniProt O59767) |
| – | binds | Mad3-KEN2 mutant tagged with GFP (from UniProt O59767) |

Results are given in words; binding and its absence hold for the method and conditions named. In cells and extracts the contact can be indirect. A result given as binding can be weak or reduced; the word gives no strength.
